Laboratory results published in US20230365636A1, “BIOORTHOGONAL REPORTER GENE SYSTEM” (priority 2020, published 2023).

Assays:
Jurkat = assay: Number of reporter proteins on the cell surface by flow cytometry (anti-V5 Alexa Fluor 488, MESF kit), lentivirally transduced cells; format: cell-based, human
Jurkat T-cells = assay: Surface expression of reporter constructs by V5-tag flow cytometry, retrovirally transduced cells (Example 7); format: cell-based, human

Molecule | surface expression upon T-cell activation (Jurkat; Jurkat, PMA/ionomycin activation, FIG. 9B) [copies] | increase of surface expression upon T-cell activation (Jurkat; PMA/ionomycin) [%] | fold higher cell surface expression level vs hu_scFv (C825) (Jurkat T-cells; receptors per cell, unsorted) [fold] | fold higher cell surface expression level vs mu_scFv(C825) (Jurkat T-cells; receptors per cell, unsorted) [fold] | fold higher expression vs huC825 after FACS (Jurkat T-cells; 10% highest expressing clones) [fold] | fold higher expression vs muC825 after FACS (Jurkat T-cells; 10% highest expressing clones) [fold] | fold difference in the MFI vs humanized scFv (C825) (Jurkat T-cells; unsorted) [fold] | fold difference in the MFI vs murine scFv (C825) (Jurkat T-cells; unsorted) [fold]
DTPA-R: membrane-anchored reporter protein with DTPA-binding Anticalin, V5-tag and CD4 transmembrane domain (protein) QDSTSDLIPAPPLSKVPLQQNFQDNQFHGKWYQVGRAGNAAPPEDPELLLLTAQTYELKEDKSYDVTAVRFRKKMCEYLTMTFVPGSQPGEFTLGNIKNYPGLTSYFVRVVSTNYNQHAMVFFKKVQQNREYFSISLLGRTKELTSELKENFIRFSKSLGLPENHIVFPVPIDQCIDASGKPIPNPLLGLDSTGAPASPVQPMALIVLGGVAGLLLFIGLGIFFCVRCRHRRR | 960.000 | ~10 | 9.1 | 8.2 | – | – | – | –
CL31d: Prior art Anticalin on human Lcn2 scaffold binding Bn-CHX-A″-DTPA•Me; in Example 7 the label denotes construct CL31d-V5-CD4TMD (protein, DTPA-V5-TMD) MPLGLLWLGLALLGALHAQAQDSTSDLIPAPPLSKVPLQQNFQDNQFHGKWYQVGRAGNAAPPEDPELLLLTAQTYELKEDKSYDVTAVRFRKKMCEYLTMTFVPGSQPGEFTLGNIKNYPGLTSYFVRVVSTNYNQHAMVFFKKVQQNREYFSISLLGRTKELTSELKENFIRFSKSLGLPENHIVFPVPIDQCIDASGKPIPNPLLGLDSTGAPASPVQPMALIVLGGVAGLLLFIGLGIFFCVRCRHRRRASTG | – | – | – | – | 3.7 | 3.0 | 6.1 | 5.8
